Results are given in words; binding and its absence hold for the method and conditions named. Binding seen in cells or lysates may run through a third protein. Some results given as binding are weak or reduced against the parent protein; the word gives no strength.
Key:
mouse centrin1 (mouse) = mouse centrin1 (mouse) (UniProt P41209); test: co-IP; WT mouse testis extract (20 mM tris-HCl pH 7.5, 50 mM KCl, 5 mM MgCl2, 10% glycerol, 0.05% Triton X-100, 1 mM beta-mercaptoethanol) incubated 2 hours at 4°C with Dynabeads protein A carrying anti-centrin1 or anti-centrin2 antibodies or control IgG; washed with high-salt buffer (400 mM KCl); eluted with 0.1 M glycine pH 2.5; immunoblot
mouse centrin2 (mouse) = mouse centrin2 (mouse) (UniProt Q9R1K9); test: as above

The chains behind the UniProt entries cited, without tags or fusion partners.
UniProt P41209: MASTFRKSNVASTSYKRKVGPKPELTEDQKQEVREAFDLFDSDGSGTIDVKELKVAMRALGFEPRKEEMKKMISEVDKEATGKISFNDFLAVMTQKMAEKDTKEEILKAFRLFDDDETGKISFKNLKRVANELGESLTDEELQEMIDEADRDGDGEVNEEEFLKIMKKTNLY
UniProt Q9R1K9: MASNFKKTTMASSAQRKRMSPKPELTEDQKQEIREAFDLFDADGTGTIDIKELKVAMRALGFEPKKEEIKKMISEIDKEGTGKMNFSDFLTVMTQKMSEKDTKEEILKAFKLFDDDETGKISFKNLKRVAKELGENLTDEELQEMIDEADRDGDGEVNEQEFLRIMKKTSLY

binding (mouse centrin1 (mouse)): binds
binding (mouse centrin2 (mouse)): binds
B1: mouse POC5 (protein, UniProt Q9DBS8 1-558)
chain: MSSDEDKCSLHVAHNDSDRSVSTDLQEEYEELLRYAIVNPNVECSASQPSHLRGEVAPDRFPTLAGNNPVRDTELEVGKGSDLNISSHSKSGSPRKPSHPVMDFFSSHVLGDSSSPASLSTRTDAHEINGGEHLVSDENFQKLENILDIWSSGLKTNVLSELSKWRLNFIDWHRMEMKKEKEKHAVVVKQLSNQISDLKELQKAFEISIGRKDEVISNLSRAIGKQKERIELMKSFFRWRIGHVKSRQEIYEGKLADQYFQRTLLKKVWKGWRSVVQRQWKDVVERACQARAEEVCVQISNDYEARLAMLSGALENAKAEIQKMQQEKDHFEDSMKKAFMRGVCALNLEAMTIFQNKNEAGIDFTNNKKEESGPGGPGREPSAHLDTSSSTMPSAVPSQLLPSGPLAAGVASATAFPSAASLTSAGATSASSLHVPISILSAGSAAAPAPEESYAPRVVTAAQQKAGKTITARITGRSDFGSKARINSSLAIMGVSPPMGSVVVEKHHPVTVQTIPQATAAKYPRTIHPESSISASRSLGARPGHAQSLSVQSIKVVD

Reference: PMC12674131
